According to PubChem BioAssay AID1347076 (National Center for Advancing Translational Sciences (NCATS), 2019):
Among all 400,000 compounds or so, about 13,000 (3.2%) were called active. This list was built around the results that the source calls inconclusive (neither active nor inactive); the mix of calls is not that of the screen. Calls come from the whole dose curve; as a rule, active = well fitted cell-killing curve with a large enough effect; inconclusive = small, poorly fitted or top-dose-only effect, or effect the other way; inactive = flat fitted curve, though single readings scatter. Potencies beside an inconclusive call are fits to weak or partial responses and may not hold up.

Assay: qHTS assay for MDR1-selective chemotherapeutics: Primary screen using the drug-selected MDR subline cells KB-V1; note: nearly all actives have a fitted effect of over 60% in size
Conditions: KB-V1 MDR cells viability, CellTiter-Glo, 72 h; activity change, negative = cytotoxicity: at 46.1 µM (top of the series)
Procedure, shortened: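 qHTS viability screen in drug-selected KB-V1 MDR cells: 72 h compound treatment at 37 degrees C, ATP luminescence end point.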
% is set by controls: 0 for no effect and ±100 for the full control effect; potency is the fitted concentration of half-maximal effect.

Structure (SMILES) | activity change, negative = cytotoxicity | Potency
O=C(Nc1cc(C(=O)Nc2ccccc2C(=O)O)cc(C(=O)Nc2ccccc2C(=O)O)c1)c1ccccc1 | inactive: 13.1% | 
CCNC(=O)c1c(NC(=O)c2cc(-c3cc(C)ccc3O)n[nH]2)sc2c1CCCC2 | inactive: -10.4% | 
C/C(=N\O)c1sc(-c2ccccc2)nc1C |  | inconclusive: 29.1 µM [cytotoxic, single point]
Fc1ccc(NC(=S)NN=Cc2ccccc2Cl)cc1 | inactive: 2.27% | 
O=C(Nc1cccc(OC(F)(F)F)c1)C1Cc2c(-c3cccc(F)c3)ccnc2O1 (stereo not drawn) |  | inconclusive: 29.1 µM [cytotoxic, single point]
O=C(COc1ccccc1C(=O)Nc1ccccc1)Nc1cccc([N+](=O)[O-])c1 | inactive: -25.5% | 
O=C(/C=C/c1ccc(-c2cccc([N+](=O)[O-])c2)o1)N1CCOCC1 |  | inconclusive: 7.31 µM [cytotoxic, partial curve, poor fit]
COc1cc(/C=C/C(=O)OCC(=O)NC(=O)C2COc3ccccc3O2)ccc1OC(F)F (stereo not drawn) |  | inconclusive: 32.6 µM [rising, single point]
Cc1ccc(C(C(=O)NC2CCCCC2)N(Cc2cccnc2)C(=O)C2COc3ccccc3O2)o1 (stereo not drawn) |  | inconclusive: 25.9 µM [cytotoxic, partial curve, poor fit]
CC(=O)Nc1ccc(-c2ccnc3c2CC(C(=O)Nc2ccc(Cl)c(C(F)(F)F)c2)O3)cc1 (stereo not drawn) |  | inconclusive: 29.1 µM [cytotoxic, single point]
CCS(=O)(=O)NCCc1cc2ccc(C)cc2[nH]c1=O |  | active: 20.6 µM
CCN1C[C@@H]2[C@@H]3C(=O)N(C)C(=O)[C@@H]3[C@](CC)(C1=O)N2C(=O)c1ccc(C)cc1 | inactive: -6.74% | 
Cc1cc(C(=O)NNC(=O)c2ccccc2O)c(C)o1 | inactive: -8.82% | 
CCOc1ccc2c3c(c(=O)oc2c1OCC)CCCC3 |  | active: 7.31 µM
COc1ccc(NC(=O)C2CCCN2S(=O)(=O)c2cccc3cccnc23)c(OC)c1 (stereo not drawn) |  | inconclusive: 0.411 µM [cytotoxic, full curve, poor fit]
Cc1ccc(C(CC(=O)Nc2ccc(F)c(Cl)c2)N2Cc3ccccc3C2=O)cc1 (stereo not drawn) | inactive: 0% | 
CCOC(=O)c1[nH]c(C)c(CCC(=O)Nc2ccc(Br)c(C)c2)c1C | inactive: -13% | 
O=C(O)C=Cc1c[nH]c2nccnc12 | inactive: 17% | 
Cn1cc(-c2nnnn2-c2cccc(C(F)(F)F)c2)c(C(F)(F)F)n1 | inactive: -4.39% | 
CCN(CC)CCn1c(SCC(=O)Nc2ccc3c(c2)CCC3)nc2ccccc2c1=O |  | inconclusive: 32.6 µM [cytotoxic, partial curve, poor fit]
CC(C)(C)S(=O)N1Cc2ccc(CO)cc2[C@@H]1CCO (stereo partly drawn) | inactive: 12.6% | 
Cc1cc(S(=O)(=O)Nc2nc(CN3CCOCC3)nc3sc4c(c23)CCCC4)ccc1F | inactive: -1.36% | 
Cc1noc(C)c1S(=O)(=O)Nc1ccc2c(c1)C(=O)N([C@@H](C)CO)C[C@H](C)[C@@H](CN(C)Cc1ccc(C(F)(F)F)cc1)OCCCC[C@H](C)O2 |  | inconclusive: 29.1 µM [cytotoxic, single point]
COc1cccc(CNC(=O)c2nnn(CC(=O)Nc3ccc(Br)cc3)c2N)c1 | inactive: -3.05% | 
Cc1cc(C)cc(Nc2cc(C)nc3nc(-c4ccco4)nn23)c1 | inactive: -12.5% | 

Structure (SMILES) | activity change, negative = cytotoxicity | Potency
COc1ccc(CCNC(=O)C2CCCN2C(=O)NC2CCCCC2)cc1OC (stereo not drawn) | inactive: 8.61% | 
Cc1ccc(-c2nc3c4ccccc4n(CC(=O)N4CCN(c5ccc(F)cc5)CC4)c(=O)n3n2)cc1 | inconclusive: 43.1% | 
COc1ccc(-c2cn(CCO)c(CCN)n2)cc1 |  | inconclusive: 29.1 µM [rising, single point]
O=C(CSc1n[nH]c(-c2ccccc2O)n1)N1CCCc2ccccc21 |  | inconclusive: 20.6 µM [cytotoxic, single point]
CC(C)CC1C(=O)N(Cc2cn(CC3CCCCC3)nn2)CCS(=O)(=O)N1Cc1ccc(-c2ccc(Cl)c(Cl)c2)cc1 (stereo not drawn) |  | inconclusive: 32.6 µM [cytotoxic, single point]
CC1CCN(c2ccc3c(c2)S(=O)(=O)c2cccc(C(=O)O)c2C3=O)CC1 |  | inconclusive: 32.6 µM [rising, partial curve, poor fit]
CC(c1nc2ccccc2c(=O)[nH]1)N(C)CCOc1ccc(Cl)cc1 (stereo not drawn) |  | inconclusive: 16.4 µM [cytotoxic, partial curve, poor fit]
Cc1cc2ncn(CCOc3ccccc3C#N)c2cc1C |  | inconclusive: 16.4 µM [cytotoxic, single point]
Cc1nc(CCNC(=O)c2cc(COc3ccc(F)cc3Cl)on2)sc1C |  | inconclusive: 8.2 µM [cytotoxic, partial curve]
CCCCn1c(N)c(N(CCOC)C(=O)C2CC(=O)N(c3ccc(CC)cc3)C2)c(=O)[nH]c1=O (stereo not drawn) |  | inconclusive: 29.1 µM [cytotoxic, single point]
O=C(CN1CCN(S(=O)(=O)c2ccc(Cl)c(C(F)(F)F)c2)CC1)NC(=O)NC1CCCCC1 | inactive: 0% | 
Cn1ncc(Br)c1C(=O)NC(=S)N1CCN(c2ccccn2)CC1 |  | inconclusive: 20.6 µM [cytotoxic, partial curve, poor fit]
O=C1NC(=S)NC(=O)C1Nc1ccc(Cl)cc1 |  | inconclusive: 32.6 µM [cytotoxic, single point]
COc1ccc(NC(=O)C(CC(=O)O)Cc2ccc(Br)cc2)cc1 (stereo not drawn) |  | inconclusive: 16.4 µM [rising, single point]
NN1C(=O)NC(c2ccccc2)(c2ccccc2)C1=O | inactive: -7.74% | 
COc1ccc(NC(=O)c2cccc(N3C(=O)C4C5C=CC(C6CC56)C4C3=O)c2)c(OC)c1 (stereo not drawn) | inactive: -22.7% | 
COc1ccccc1N1CCN(C(=O)c2ccc(Br)o2)CC1 |  | inconclusive: 23.1 µM [cytotoxic, single point]
CCOc1ccc(Br)cc1S(=O)(=O)NC1CC(C)(C)NC(C)(C)C1 | inactive: -19.1% | 
COc1ccccc1N(CC(O)COc1ccc(C)cc1)S(=O)(=O)c1ccccc1 (stereo not drawn) |  | inconclusive: 4.61 µM [cytotoxic, full curve]
C/C(CCC(C)C)=N\NC(=S)Nc1cc(S(=O)(=O)N2CCOCC2)ccc1N1CCOCC1 |  | inconclusive: 18.4 µM [cytotoxic, partial curve, poor fit]
CC(NC=O)c1nc2ccccc2n1CCc1ccccc1 (stereo not drawn) | inactive: 6.83% | 
COc1ccc(N(C)C(=O)Cc2c(C(=O)O)n(C)c3ccccc23)c(OC)c1 |  | inconclusive: 16.4 µM [rising, partial curve, poor fit]
CCc1ccc(CN(C)C(=O)C2CCC(=O)N(CC3CCCCC3)C2)cc1 (stereo not drawn) |  | inconclusive: 9.2 µM [cytotoxic, partial curve]
COc1ccccc1NC(=O)CSc1oc(-c2ccc(F)cc2)nc1S(=O)(=O)c1ccc(Br)cc1 | inactive: 15.4% | 
CCCCNC(=S)NNC(=O)c1csc(C(C)C)c1 |  | active: 23.1 µM

Structure (SMILES) | activity change, negative = cytotoxicity | Potency
CCOC(=O)/C(C#N)=C\c1cc(C)n(-c2ccccc2)c1C |  | inconclusive: 29.1 µM [cytotoxic, single point]
CCC(=O)OC1(C)C(=O)C2=COC(c3ccc(OC)cc3)=CC2=C(Br)C1=O (stereo not drawn) | inactive: 0% | 
CC(=O)c1ccc(S(=O)(=O)NCCOc2ccccc2)cc1 | inactive: 3.12% | 
COc1ccc(N2CCN(C(=O)c3csc4ccccc34)CC2)cc1 |  | active: 20.6 µM
COc1cccc(CN2CCN(Cc3ccc4c(c3)OCCO4)CC2CCO)c1 (stereo not drawn) |  | inconclusive: 7.31 µM [cytotoxic, partial curve]
COc1ccc(Nc2ccnc(Nc3ccc(OC)cc3)n2)cc1 |  | active: 16.4 µM
S=c1[nH]nc(-c2ccccc2)n1/N=C/C=C/c1ccco1 | inactive: 4.66% | 
Cn1c(=O)c2c(SCC(=O)Nc3ccc(F)cc3F)nc(C3CCCC3)nc2n(C)c1=O | inactive: -10.1% | 
S=c1[nH]c2ccccc2n2c(=S)[nH]nc12 |  | inconclusive: 10.3 µM [rising, partial curve, poor fit]
CC1(C)CC(=O)C(C=N)=C(O)C1 |  | inconclusive: 25.9 µM [rising, single point]
CCCn1nc(C(=O)NNC(=O)CCCOc2ccc(OC)cc2)c2ccccc2c1=O |  | inconclusive: 32.6 µM [cytotoxic, single point]
COc1ccc(Cl)cc1C(=O)NNC(=O)CSc1nncn1C |  | inconclusive: 29.1 µM [rising, single point]
COc1cccc(SCc2noc(C(=O)NCc3ccccc3)c2C(=O)NCc2ccccc2)c1 |  | inconclusive: 0.731 µM [rising, full curve, poor fit]
COc1ccc(CCNC2=CC(=O)CCC2)cc1OC | inactive: -6.01% | 
CC1CCN(Cc2nnnn2CCCC(=O)N(C)C(C)c2ccccn2)CC1 (stereo not drawn) | inactive: -0.965% | 
Cc1ccccc1CNC(=O)c1ccc2[nH]c(C)c(C)c2c1 | inactive: 3.53% | 
Cc1ccc(N2C(=O)CC(NNc3nc4ccccc4s3)C2=O)cc1 (stereo not drawn) |  | inconclusive: 20.6 µM [rising, partial curve, poor fit]
COc1cc2ncnc(N(C)Cc3csc(C)n3)c2cc1-c1ccc2c(c1)OCO2 |  | inconclusive: 25.9 µM [cytotoxic, single point]
Cc1cccc(N2CCN(C(=O)CSc3nnnn3C3CC3)CC2)c1C | inconclusive: -11.3% | 
CC(=O)N1CCN(c2nc(-c3ccco3)c3c(c2C#N)CC(C)(C)SC3)CC1 | inactive: 0% | 
O=[N+]([O-])c1ccccc1C1Nc2cccc3cccc(c23)N1 | inactive: 6.16% | 
Cc1ccc(-c2csc(=S)n2CC(=O)OCC(=O)NC(C)C(C)C)cc1 (stereo not drawn) |  | active: 16.4 µM
C/C(=N/Nc1nc(C)cc(C)n1)c1ccc(Br)cc1 |  | inconclusive: 20.6 µM [cytotoxic, single point]

As entered above.
`S=c1[nH]c2ccccc2n2c(=S)[nH]nc12` | Potency: inconclusive: 10.3 µM [rising, partial curve, poor fit]
`Cc1ccccc1CNC(=O)c1ccc2[nH]c(C)c(C)c2c1` | activity change, negative = cytotoxicity: inactive: 3.53%
`COc1ccc(Nc2ccnc(Nc3ccc(OC)cc3)n2)cc1` | Potency: active: 16.4 µM
`COc1cccc(CN2CCN(Cc3ccc4c(c3)OCCO4)CC2CCO)c1` (stereo not drawn) | Potency: inconclusive: 7.31 µM [cytotoxic, partial curve]
